Paper doi:10.1101/2023.12.06.570360
Results are given in words; binding and its absence hold for the method and conditions named. Some entries that bind do so weakly or less than the wild type.

Protein sequences, listed by entry. Tags and fused reporters are not part of them.
UniProt Q05471: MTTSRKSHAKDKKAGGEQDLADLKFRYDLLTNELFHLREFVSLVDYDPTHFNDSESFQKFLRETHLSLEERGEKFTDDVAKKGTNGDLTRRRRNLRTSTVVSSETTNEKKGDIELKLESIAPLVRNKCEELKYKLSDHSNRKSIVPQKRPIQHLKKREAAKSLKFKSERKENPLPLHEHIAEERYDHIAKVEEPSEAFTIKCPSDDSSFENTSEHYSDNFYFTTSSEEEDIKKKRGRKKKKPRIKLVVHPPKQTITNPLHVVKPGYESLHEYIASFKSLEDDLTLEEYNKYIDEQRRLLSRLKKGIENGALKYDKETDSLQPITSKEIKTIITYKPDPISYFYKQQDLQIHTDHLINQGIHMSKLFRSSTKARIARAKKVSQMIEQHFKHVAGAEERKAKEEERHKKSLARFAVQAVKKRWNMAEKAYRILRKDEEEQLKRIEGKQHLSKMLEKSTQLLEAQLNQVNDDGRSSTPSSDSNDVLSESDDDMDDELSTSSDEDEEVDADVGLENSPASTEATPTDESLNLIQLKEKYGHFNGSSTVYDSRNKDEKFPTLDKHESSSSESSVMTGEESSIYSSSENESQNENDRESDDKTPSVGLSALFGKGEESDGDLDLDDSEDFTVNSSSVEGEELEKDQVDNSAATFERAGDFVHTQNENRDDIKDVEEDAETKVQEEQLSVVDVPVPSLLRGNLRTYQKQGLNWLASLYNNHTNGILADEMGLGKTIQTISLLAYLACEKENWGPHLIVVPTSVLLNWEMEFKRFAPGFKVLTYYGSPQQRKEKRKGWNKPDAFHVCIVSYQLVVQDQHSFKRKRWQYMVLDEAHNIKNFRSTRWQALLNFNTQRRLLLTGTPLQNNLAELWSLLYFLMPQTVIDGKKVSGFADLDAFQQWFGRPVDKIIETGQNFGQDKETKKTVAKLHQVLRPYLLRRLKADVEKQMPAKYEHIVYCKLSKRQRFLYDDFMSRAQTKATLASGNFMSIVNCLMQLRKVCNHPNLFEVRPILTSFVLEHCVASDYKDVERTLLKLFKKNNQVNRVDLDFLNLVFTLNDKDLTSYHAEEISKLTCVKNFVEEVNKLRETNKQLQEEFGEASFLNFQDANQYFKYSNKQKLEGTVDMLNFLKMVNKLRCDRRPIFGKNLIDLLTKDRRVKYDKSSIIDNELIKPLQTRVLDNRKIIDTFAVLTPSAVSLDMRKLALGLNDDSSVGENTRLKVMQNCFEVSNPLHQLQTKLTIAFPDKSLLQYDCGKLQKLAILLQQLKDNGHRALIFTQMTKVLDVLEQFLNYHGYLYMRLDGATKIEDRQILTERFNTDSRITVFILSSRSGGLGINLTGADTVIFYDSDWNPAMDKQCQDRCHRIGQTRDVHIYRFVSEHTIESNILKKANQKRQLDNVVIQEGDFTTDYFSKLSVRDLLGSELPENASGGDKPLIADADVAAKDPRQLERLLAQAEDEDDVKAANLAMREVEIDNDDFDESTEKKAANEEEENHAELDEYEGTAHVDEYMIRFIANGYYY
UniProt Q03940: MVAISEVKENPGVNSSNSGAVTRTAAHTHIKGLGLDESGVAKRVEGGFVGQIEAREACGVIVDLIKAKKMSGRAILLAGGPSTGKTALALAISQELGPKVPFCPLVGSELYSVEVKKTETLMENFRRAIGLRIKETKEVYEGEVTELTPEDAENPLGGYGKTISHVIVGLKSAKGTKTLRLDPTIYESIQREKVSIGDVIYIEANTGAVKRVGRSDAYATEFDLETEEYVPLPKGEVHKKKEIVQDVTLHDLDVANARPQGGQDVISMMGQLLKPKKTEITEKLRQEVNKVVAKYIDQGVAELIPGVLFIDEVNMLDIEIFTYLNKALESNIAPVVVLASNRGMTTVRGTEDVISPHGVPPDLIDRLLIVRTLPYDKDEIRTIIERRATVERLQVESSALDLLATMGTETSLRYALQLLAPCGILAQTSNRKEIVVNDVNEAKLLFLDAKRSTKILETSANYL

Target: Swr1-3xFLAG (yeast) (UniProt Q05471)
Assay: sequential affinity purification

binding: binds
Substance: Rvb1-MBP (from UniProt Q03940 1-463)
